Each structure is given as a SMILES string.

This note sets out measurements from patent US9102899B2, “Organic compounds” (Givaudan SA, priority 2004, dated 2015).

A short description of the data set: Odour description.
Consider `CCC(C)=C(C#N)c1ccccc1` (racemic) [Example 3, 3-Methyl-2-phenyl-pent-2-ene nitrile], for which the Odour description entry is given as “sweet, floral, green honey, salicylate, orange blossom”.

In the case of `CCCCCC=C(C#N)c1ccccc1` (stereo in doubt) [Example 2, (2E)-2-Phenyl-oct-2-ene nitrile], the Odour description entry is recorded as “fresh, green, jasmine, salicylate”.

For the compound `CC(C)=C(C#N)c1ccccc1` [Example 1, 3-Methyl-2-phenyl-but-2-ene nitrile], the Odour description entry is “floral, Rosacetol, fresh, citrus, dry hay, tobacco”.

With `CC(C)=C(C#N)c1ccc(C)cc1` [Example 4, 3-Methyl-2-p-tolyl-but-2-ene nitrile], the Odour description result is given as “citrus, rosy, fruity, minty”.

Regarding `CC(C)=CCCC(C)=C(C#N)c1ccccc1` [Example 5, 3,7-Dimethyl-2-phenyl-octa-2,6-diene nitrile], the Odour description result is listed as “floral, honey, cinnamon, sweet”.

For the compound `CC(C)=C/C=C(/C#N)c1ccccc1` [Example 6, (2E)-5-Methyl-2-phenyl-hexa-2,4-diene nitrile], the Odour description result was “powdery, cinnamone, benzaldehyde”.

On to `COc1ccccc1C(C#N)=C(C)C` [Example 7, 2-(2-Methoxy-phenyl)-3-methyl-but-2-ene nitrile], for which the Odour description entry was “citrus, hyacinthe, coumarin”.

On to `COc1ccc(C(C#N)=C(C)C)cc1` [Example 8, 2-(4-methoxy-phenyl)-3-methyl-but-2-ene nitrile], for which the Odour description result was “floral, anis, sweet”.

For `CCC(CC)=C(C#N)c1ccccc1` [Example 9, 3-ethyl-2-phenyl-pent-2-ene nitrile], the Odour description result is recorded as “green, floral, rosy”.
